Source: the supplement of paper PMC10849652
The other results are listed elsewhere or left out.

Chains of the proteins cited; added tags and fusions are not shown. Lines headed by an entry give the natural chain unless they say otherwise; changes in a name come on top.
UniProt O95059: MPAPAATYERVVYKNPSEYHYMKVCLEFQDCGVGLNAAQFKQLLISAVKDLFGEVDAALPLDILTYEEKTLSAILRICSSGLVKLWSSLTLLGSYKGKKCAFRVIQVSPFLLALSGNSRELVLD
UniProt Q8N5L8: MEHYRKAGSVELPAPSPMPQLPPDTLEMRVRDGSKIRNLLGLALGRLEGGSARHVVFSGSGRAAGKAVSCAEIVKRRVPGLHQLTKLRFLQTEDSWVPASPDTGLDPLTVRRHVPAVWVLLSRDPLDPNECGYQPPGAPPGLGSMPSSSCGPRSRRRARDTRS
UniProt P27694, whole entry, looked up: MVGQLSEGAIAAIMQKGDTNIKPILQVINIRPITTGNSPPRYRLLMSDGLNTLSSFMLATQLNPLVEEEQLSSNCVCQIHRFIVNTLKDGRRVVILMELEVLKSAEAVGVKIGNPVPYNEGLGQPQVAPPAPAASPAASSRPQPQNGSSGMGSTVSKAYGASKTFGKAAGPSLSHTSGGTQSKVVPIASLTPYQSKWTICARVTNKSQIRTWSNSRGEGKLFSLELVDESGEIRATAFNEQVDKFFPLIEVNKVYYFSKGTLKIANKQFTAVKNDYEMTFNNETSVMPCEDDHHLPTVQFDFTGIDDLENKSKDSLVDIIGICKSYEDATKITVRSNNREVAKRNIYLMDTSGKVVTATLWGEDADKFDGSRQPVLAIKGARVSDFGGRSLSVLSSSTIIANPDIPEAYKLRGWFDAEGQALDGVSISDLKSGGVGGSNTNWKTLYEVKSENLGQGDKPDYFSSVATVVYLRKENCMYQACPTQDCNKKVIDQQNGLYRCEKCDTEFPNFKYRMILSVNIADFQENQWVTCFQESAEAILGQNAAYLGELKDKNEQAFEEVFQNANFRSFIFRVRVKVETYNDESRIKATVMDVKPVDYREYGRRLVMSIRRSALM
UniProt Q86UA6: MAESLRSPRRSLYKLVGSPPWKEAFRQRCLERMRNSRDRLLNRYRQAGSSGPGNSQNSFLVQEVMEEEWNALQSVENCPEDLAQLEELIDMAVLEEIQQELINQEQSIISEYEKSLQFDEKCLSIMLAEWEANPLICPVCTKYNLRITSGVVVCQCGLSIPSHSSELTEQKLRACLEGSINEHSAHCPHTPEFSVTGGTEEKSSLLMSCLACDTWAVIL
UniProt Q9P2E9: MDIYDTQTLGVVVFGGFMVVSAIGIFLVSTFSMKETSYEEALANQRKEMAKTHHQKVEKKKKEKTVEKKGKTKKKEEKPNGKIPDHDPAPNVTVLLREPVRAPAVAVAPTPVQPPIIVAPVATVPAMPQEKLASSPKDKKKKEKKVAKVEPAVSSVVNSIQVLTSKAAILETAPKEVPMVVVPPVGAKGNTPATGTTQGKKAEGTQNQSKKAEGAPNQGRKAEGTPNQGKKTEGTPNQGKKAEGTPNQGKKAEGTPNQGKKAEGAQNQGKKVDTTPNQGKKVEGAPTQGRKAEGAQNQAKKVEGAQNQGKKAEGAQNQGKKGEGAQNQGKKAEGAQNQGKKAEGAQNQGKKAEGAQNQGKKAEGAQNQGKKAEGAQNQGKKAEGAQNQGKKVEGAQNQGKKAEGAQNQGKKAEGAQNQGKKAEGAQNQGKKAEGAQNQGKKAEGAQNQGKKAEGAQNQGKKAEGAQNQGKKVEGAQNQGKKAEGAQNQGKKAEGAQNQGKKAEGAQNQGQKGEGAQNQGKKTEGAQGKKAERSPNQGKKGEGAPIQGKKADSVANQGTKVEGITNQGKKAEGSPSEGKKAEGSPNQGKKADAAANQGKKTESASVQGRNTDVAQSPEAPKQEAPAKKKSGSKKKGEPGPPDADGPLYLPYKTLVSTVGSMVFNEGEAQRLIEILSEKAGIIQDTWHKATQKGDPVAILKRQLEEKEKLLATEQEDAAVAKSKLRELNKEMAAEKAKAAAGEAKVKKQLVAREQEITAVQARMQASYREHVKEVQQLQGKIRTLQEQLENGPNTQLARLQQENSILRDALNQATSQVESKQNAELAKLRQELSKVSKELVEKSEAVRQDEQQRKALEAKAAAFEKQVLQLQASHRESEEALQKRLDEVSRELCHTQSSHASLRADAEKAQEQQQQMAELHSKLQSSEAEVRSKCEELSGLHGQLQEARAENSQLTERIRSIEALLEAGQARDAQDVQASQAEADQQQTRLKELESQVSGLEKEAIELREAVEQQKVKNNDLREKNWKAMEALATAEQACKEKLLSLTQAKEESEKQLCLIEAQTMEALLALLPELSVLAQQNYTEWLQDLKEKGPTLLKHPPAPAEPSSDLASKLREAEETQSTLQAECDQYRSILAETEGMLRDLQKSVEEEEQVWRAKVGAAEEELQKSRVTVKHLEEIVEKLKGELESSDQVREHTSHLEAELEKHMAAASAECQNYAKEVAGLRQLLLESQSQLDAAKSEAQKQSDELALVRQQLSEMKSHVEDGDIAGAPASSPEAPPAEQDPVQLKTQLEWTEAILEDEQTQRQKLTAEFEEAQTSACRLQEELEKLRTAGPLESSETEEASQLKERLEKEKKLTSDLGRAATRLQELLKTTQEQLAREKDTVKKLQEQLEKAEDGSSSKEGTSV
UniProt Q9BWH6: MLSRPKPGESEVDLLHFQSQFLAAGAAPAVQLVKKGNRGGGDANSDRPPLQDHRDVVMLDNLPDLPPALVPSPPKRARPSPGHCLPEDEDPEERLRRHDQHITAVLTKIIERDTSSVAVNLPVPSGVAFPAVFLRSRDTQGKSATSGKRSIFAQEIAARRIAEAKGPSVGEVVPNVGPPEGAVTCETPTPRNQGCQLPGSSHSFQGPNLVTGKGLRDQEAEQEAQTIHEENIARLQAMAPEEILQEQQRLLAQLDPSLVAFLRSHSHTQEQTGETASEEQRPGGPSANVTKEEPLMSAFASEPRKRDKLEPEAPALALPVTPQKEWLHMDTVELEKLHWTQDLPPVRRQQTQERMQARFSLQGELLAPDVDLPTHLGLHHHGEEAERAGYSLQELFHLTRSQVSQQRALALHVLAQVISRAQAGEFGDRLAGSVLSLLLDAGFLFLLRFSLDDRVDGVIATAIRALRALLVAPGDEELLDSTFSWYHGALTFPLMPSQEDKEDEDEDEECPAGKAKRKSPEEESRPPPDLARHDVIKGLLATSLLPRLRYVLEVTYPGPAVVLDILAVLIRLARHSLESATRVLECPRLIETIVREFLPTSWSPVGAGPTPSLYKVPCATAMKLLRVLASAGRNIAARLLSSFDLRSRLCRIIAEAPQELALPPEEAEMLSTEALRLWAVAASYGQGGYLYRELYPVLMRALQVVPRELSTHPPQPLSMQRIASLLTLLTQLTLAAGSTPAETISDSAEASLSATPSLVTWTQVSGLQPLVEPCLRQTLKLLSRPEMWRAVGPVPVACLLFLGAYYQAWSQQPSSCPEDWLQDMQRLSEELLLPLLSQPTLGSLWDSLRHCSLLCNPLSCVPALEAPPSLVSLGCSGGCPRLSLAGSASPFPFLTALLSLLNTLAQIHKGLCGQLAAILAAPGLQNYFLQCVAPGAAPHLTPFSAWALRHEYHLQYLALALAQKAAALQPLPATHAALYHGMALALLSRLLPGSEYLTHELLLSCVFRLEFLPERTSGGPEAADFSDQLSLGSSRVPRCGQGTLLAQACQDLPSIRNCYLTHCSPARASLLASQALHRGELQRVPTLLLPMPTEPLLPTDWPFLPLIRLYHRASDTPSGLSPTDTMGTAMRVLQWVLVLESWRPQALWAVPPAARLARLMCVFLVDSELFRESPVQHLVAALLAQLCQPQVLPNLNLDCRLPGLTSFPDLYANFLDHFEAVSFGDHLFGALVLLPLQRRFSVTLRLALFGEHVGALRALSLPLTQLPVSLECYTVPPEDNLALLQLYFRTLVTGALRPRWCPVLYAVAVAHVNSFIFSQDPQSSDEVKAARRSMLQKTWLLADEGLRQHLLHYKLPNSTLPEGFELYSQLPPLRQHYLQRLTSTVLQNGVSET
UniProt Q92901: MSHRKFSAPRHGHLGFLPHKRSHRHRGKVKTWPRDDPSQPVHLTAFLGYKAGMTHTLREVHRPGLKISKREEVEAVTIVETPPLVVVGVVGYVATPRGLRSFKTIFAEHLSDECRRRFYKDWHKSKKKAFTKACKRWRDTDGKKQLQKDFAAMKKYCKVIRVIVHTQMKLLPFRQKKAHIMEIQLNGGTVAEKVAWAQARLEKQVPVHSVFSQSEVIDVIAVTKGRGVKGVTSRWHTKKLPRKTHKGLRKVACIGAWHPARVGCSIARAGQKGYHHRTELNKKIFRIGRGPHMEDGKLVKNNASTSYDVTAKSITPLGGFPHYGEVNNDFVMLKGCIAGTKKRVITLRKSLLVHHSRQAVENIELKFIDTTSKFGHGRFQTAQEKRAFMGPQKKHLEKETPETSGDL
UniProt P35244: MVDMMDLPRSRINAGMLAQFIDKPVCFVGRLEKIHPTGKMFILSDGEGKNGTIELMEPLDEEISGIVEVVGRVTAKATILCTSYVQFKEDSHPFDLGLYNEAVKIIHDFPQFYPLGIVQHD
UniProt P23443: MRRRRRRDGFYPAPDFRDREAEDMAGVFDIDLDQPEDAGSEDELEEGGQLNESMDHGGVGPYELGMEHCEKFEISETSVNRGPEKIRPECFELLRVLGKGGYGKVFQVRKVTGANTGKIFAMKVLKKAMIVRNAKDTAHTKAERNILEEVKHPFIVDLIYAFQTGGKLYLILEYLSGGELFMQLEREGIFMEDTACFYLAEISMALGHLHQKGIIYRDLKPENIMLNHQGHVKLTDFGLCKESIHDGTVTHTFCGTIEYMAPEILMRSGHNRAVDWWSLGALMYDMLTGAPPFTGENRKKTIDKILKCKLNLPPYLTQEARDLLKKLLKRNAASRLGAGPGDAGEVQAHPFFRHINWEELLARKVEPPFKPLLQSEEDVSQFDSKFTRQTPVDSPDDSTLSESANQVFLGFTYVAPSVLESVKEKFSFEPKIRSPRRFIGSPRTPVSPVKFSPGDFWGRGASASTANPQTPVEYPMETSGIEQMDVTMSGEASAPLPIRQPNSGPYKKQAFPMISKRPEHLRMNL

Columns and labels:
Assay in all cases: log2 fold change, soluble protein after heating vs DMSO (PISA); higher = thermal stabilisation; K562 cells, 10 uM, 30 min; active = over 0.2 and 3.5 SD of the protein, either way, in both replicates (recomputed)
[1] = compound: CC1=C(C=C(C=C1)NC(=O)C2=CC(=CC=C2)C(C)(C)C#N)NC3=CC4=C(C=C3)N=CN(C4=O)C
Procedure, shortened: (§1)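 Soluble protein was quantified by TMTpro 16plex LC-MS/MS after channel sums were equalised. It was obtained as the supernatant after 21,000xg for 90 min from pooled aliquots of K562 cells (2×10^6 cells/mL, 10 μM compound, 30 min) heated for 3 min across 48°C-58°C and extracted in PBS with 0.5% NP-40 at 4°C. Thermal stability values are relative to control samples and come from duplicates. They are given as log2 fold changes.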

[2] = compound: CC1=C(C=C(C=C1)NC(=O)C2=CC(=CC=C2)N(C)C)NC(=O)C3=CC=C(C=C3)O
Procedure, shortened: as §1

[3] = compound: CC1=CC=C(C=C1)SC2=C3C=C(SC3=CN=C2)C(=O)N
Procedure, shortened: as §1

[4] = compound: CC1=NC(=CC=C1)C2=C(N=C(N2)C(C)(C)C)C3=CC4=NC=CN=C4C=C3
Procedure, shortened: as §1

Nexturastat A = compound: CCCCN(Cc1ccc(C(=O)NO)cc1)C(=O)Nc1ccccc1 [Nexturastat A]
Procedure, shortened: as §1

vemurafenib = compound: CCCS(=O)(=O)Nc1ccc(F)c(C(=O)c2c[nH]c3ncc(-c4ccc(Cl)cc4)cc23)c1F [vemurafenib]
Procedure, shortened: as §1

[5] = compound: CCCS(=O)(=O)Nc1ccc(F)c(C(=O)c2c[nH]c3ncc(Cl)cc23)c1F
Procedure, shortened: as §1

[6] = compound: CCCc1cc(C)[nH]c(=O)c1CNC(=O)c1cc(-c2ccnc(N3CCN(C)CC3)c2)cc2c1cnn2C(C)C
Procedure, shortened: as §1

givinostat = compound: CCN(CC)Cc1ccc2cc(COC(=O)Nc3ccc(C(=O)NO)cc3)ccc2c1 [givinostat]
Procedure, shortened: as §1

barasertib = compound: CCN(CCCOc1ccc2c(Nc3cc(CC(=O)Nc4cccc(F)c4)[nH]n3)ncnc2c1)CCOP(=O)(O)O [barasertib]
Procedure, shortened: as §1

Measured: log2 fold change

RPL19 (UniProt P84098)
inactive: [1] 0.005 | [2] 0.009 | [3] -0.073 | [4] -0.128 | Nexturastat A 0.319 | vemurafenib -0.183 | [5] -0.086 | [6] 0.173 | givinostat 0.027 | barasertib -0.099

RPS24 isoform 4 (UniProt P62847)
inactive: [1] 0.034 | [2] 0.002 | [3] -0.099 | [4] -0.07 | Nexturastat A 0.268 | vemurafenib -0.117 | [5] -0.089 | [6] 0.123 | givinostat -0.002 | barasertib -0.117

RPP14 (UniProt O95059)
inactive: [1] 0.086 | [2] 0.01 | [3] -0.031 | [4] -0.015 | Nexturastat A 0.129 | vemurafenib -0.004 | [5] 0.004 | [6] -0.037 | givinostat -0.116 | barasertib -0.087

RPL14 (UniProt P50914)
inactive: [1] 0.043 | [2] -0.021 | [3] -0.11 | [4] -0.119 | Nexturastat A 0.38 | vemurafenib -0.297 | [5] -0.148 | [6] 0.307 | givinostat 0.068 | barasertib -0.221

RPP25L (UniProt Q8N5L8)
inactive: [1] -0.028 | [2] -0.015 | [3] 0.036 | [4] 0.02 | Nexturastat A -0.01 | vemurafenib -0.034 | [5] -0.035 | [6] -0.048 | givinostat -0.073 | barasertib -0.025

RPA1 (UniProt P27694)
inactive: [1] 0.028 | [2] -0.047 | [3] -0.002 | [4] 0.05 | Nexturastat A 0.044 | vemurafenib 0.039 | [5] 0.125 | [6] 0.104 | givinostat 0.069 | barasertib 0.068

Reprinted at random: 2 entries already listed
RPP14 (UniProt O95059)
inactive: [1] 0.086 | [2] 0.01 | [3] -0.031 | [4] -0.015 | Nexturastat A 0.129 | vemurafenib -0.004 | [5] 0.004 | [6] -0.037 | givinostat -0.116 | barasertib -0.087

RPL14 (UniProt P50914)
inactive: [1] 0.043 | [2] -0.021 | [3] -0.11 | [4] -0.119 | Nexturastat A 0.38 | vemurafenib -0.297 | [5] -0.148 | [6] 0.307 | givinostat 0.068 | barasertib -0.221

Next results

RPS13 (UniProt P62277)
inactive: [1] 0.006 | [2] 0.022 | [3] -0.044 | [4] -0.057 | Nexturastat A 0.119 | vemurafenib -0.144 | [5] -0.09 | [6] 0.091 | givinostat 0.045 | barasertib -0.101

RPAIN isoform 8 (UniProt Q86UA6)
inactive: [1] 0.009 | [2] 0.038 | [3] -0.098 | [4] 0.136 | Nexturastat A -0.017 | vemurafenib -0.062 | [5] 0.042 | barasertib 0.029

RPS15 (UniProt P62841)
inactive: [1] -0.014 | [2] 0.038 | [3] -0.146 | [4] 0.005 | Nexturastat A 0.285 | vemurafenib -0.117 | [5] -0.175 | [6] 0.1 | givinostat -0.041 | barasertib -0.125

RPL24 (UniProt P83731)
inactive: [1] 0.019 | [2] 0.002 | [3] -0.03 | [4] -0.165 | Nexturastat A 0.272 | vemurafenib -0.117 | [5] -0.06 | [6] 0.206 | givinostat 0.015 | barasertib -0.092

RRBP1 (UniProt Q9P2E9)
inactive: [1] -0.066 | [2] 0.032 | [3] -0.049 | [4] -0.159 | Nexturastat A 0.426 | vemurafenib -0.138 | [5] -0.012 | [6] 0.203 | givinostat 0.081 | barasertib -0.1

RPS29 (UniProt P62273)
inactive: [1] 0.091 | [2] 0.144 | [3] -0.003 | [4] -0.019 | Nexturastat A 0.26 | vemurafenib -0.225 | [5] -0.203 | [6] 0.258 | givinostat -0.064 | barasertib -0.059

RPS2 (UniProt P15880)
inactive: [1] 0.006 | [2] 0.009 | [3] -0.075 | [4] -0.036 | Nexturastat A 0.192 | vemurafenib -0.116 | [5] -0.099 | [6] 0.084 | givinostat -0.011 | barasertib -0.095

RPL10A (UniProt P62906)
inactive: [1] 0.038 | [2] 0 | [3] -0.075 | [4] -0.202 | Nexturastat A 0.399 | vemurafenib -0.262 | [5] -0.091 | [6] 0.292 | givinostat 0.144 | barasertib -0.225

RPL31 (UniProt P62899)
inactive: [1] -0.005 | [2] 0.01 | [3] -0.086 | [4] -0.075 | Nexturastat A 0.168 | vemurafenib -0.145 | [5] -0.15 | [6] 0.092 | givinostat 0.031 | barasertib -0.149

RPAP1 (UniProt Q9BWH6)
inactive: [1] -0.033 | [2] 0.007 | [3] -0.007 | [4] 0.009 | Nexturastat A -0.088 | vemurafenib 0.026 | [5] 0.006 | [6] -0.017 | givinostat 0.01 | barasertib 0.027

RPL5 (UniProt P46777)
inactive: [1] 0.006 | [2] 0.01 | [3] -0.046 | [4] -0.136 | Nexturastat A 0.223 | vemurafenib -0.052 | [5] 0 | [6] 0.132 | givinostat 0.003 | barasertib -0.057

RPS6 (UniProt P62753)
inactive: [1] 0 | [2] 0 | [3] -0.071 | [4] -0.077 | Nexturastat A 0.227 | vemurafenib 0.034 | [5] 0.029 | [6] 0.152 | givinostat 0.024 | barasertib -0.15

RPL17 isoform 3 (UniProt P18621)
inactive: [1] 0.038 | [2] -0.006 | [3] -0.066 | [4] -0.084 | Nexturastat A 0.278 | vemurafenib -0.128 | [5] -0.065 | [6] 0.117 | givinostat -0.038 | barasertib -0.085

RPSA (UniProt P08865)
inactive: [1] 0.001 | [2] 0.021 | [3] -0.014 | [4] -0.028 | Nexturastat A 0.044 | vemurafenib -0.018 | [5] -0.019 | [6] 0.036 | givinostat -0.028 | barasertib -0.013

RPL3L (UniProt Q92901)
inactive: [1] 0.107 | [2] 0.022 | [3] -0.044 | [4] -0.089 | Nexturastat A 0.147 | vemurafenib -0.325 | [5] -0.083 | [6] 0.299 | givinostat 0.048 | barasertib -0.186

RPS3A (UniProt P61247)
inactive: [1] 0.011 | [2] 0.009 | [3] -0.081 | [4] -0.036 | Nexturastat A 0.069 | vemurafenib -0.104 | [5] -0.095 | [6] 0.071 | givinostat -0.033 | barasertib -0.109

RPL23A (UniProt P62750)
inactive: [1] 0.021 | [2] 0 | [3] -0.09 | [4] -0.125 | Nexturastat A 0.243 | vemurafenib -0.105 | [5] -0.101 | [6] 0.193 | givinostat 0.024 | barasertib -0.149

RPS18 (UniProt P62269)
inactive: [1] -0.014 | [2] 0 | [3] -0.049 | [4] -0.061 | Nexturastat A 0.148 | vemurafenib -0.125 | [5] -0.04 | [6] -0.01 | givinostat 0.021 | barasertib -0.067

RPS4X (UniProt P62701)
inactive: [1] 0.019 | [2] 0 | [3] -0.027 | [4] -0.055 | Nexturastat A 0.214 | vemurafenib -0.106 | [5] -0.08 | [6] 0.213 | givinostat 0.021 | barasertib -0.101

RPS27 (UniProt P42677)
inactive: [1] -0.031 | [2] 0.046 | [3] -0.033 | [4] -0.037 | Nexturastat A 0.106 | vemurafenib -0.023 | [5] -0.03 | [6] 0.079 | givinostat 0.125 | barasertib -0.077

RPA3 (UniProt P35244)
active: vemurafenib 0.298
inactive: [1] 0.076 | [2] -0.059 | [3] 0.111 | [4] 0.014 | Nexturastat A 0.091 | [5] 0.053 | [6] -0.044 | givinostat -0.109 | barasertib 0.066

RPS17 (UniProt P08708)
inactive: [1] 0.028 | [2] 0.025 | [3] -0.027 | [4] -0.026 | Nexturastat A 0.149 | vemurafenib -0.032 | [5] -0.063 | [6] 0.173 | givinostat 0.003 | barasertib -0.075

RPL37A (UniProt P61513)
inactive: [1] 0.019 | [2] 0.02 | [3] 0.016 | [4] -0.277 | Nexturastat A 0.458 | vemurafenib -0.311 | [5] -0.021 | [6] 0.246 | givinostat -0.021 | barasertib -0.235

RPS6KB1 (UniProt P23443)
inactive: [1] 0.035 | [2] -0.002 | [3] 0.011 | [4] -0.057 | Nexturastat A -0.069 | vemurafenib 0.012 | [5] 0.012 | [6] -0.09 | givinostat -0.018 | barasertib 0.002
